Our source for the cyclisation yield values is paper PMC8949366 (Marine Drugs, 2022).

One data set is described as follows: general procedure: peptide synthesis; 2-chlorotrityl chloride (CTC) resin, load 0.985 mmol/g; PyBOP (macrocyclization). Conditions: cyclisation step.
In the case of Cyclo (D-Leu-Pro-Leu-Pro-D-Leu), the cyclisation yield worked out at 34.5%.

Cyclo (D-Leu-Pro-D-Leu-Pro-D-Leu) displayed a cyclisation yield of 46.2%.

Substance Cyclo (Leu-Pro-D-Leu-Pro-D-Leu) came in with a cyclisation yield of 54.6%.

In turn, Cyclo (Leu-Pro-D-Leu-Pro-Leu) came in with a cyclisation yield of 36.4%.

Cyclo (Leu-Pro-Leu-Pro-D-Leu) registered a cyclisation yield of 58.9%.

The data set is the same for the next values; noted with them: cyclisation step, on linear precursor.
For the substance Cyclo (Leu-N-Me-Leu-Leu-Pro-Leu), the cyclisation yield was 40.7%.
